Laboratory results as given in paper PMC6834594, “Structure and regulation of ZCCHC4 in m^6A-methylation of 28S rRNA” (Nature Communications, 2019).
Results are given in words; binding and its absence hold for the method and conditions named.

Target: ZCCHC4(24-464) with five surface mutations for crystallisation (K55A, E56A, E57A, K167A, K168A) (human) (UniProt Q9H5U6)
Test: crystal structure; ZCCHC4(24-464) five-alanine mutant with SAH, 3.1 Å; six complexes in one asymmetric unit; sitting drop, 12 °C, 0.03 M citric acid, 0.07 M Bis-Tris propane pH 7.6, 11-12% PEG3350; both purified

B1: ZCCHC4(24-464) with five surface mutations for crystallisation (K55A, E56A, E57A, K167A, K168A) (domain or fragment, UniProt Q9H5U6 24-464)
chain: GMEVVLPLDPAVPAPLCPHGPTLLFVKVTQGAAATRRFYACSACRDRKDCNFFQWEDEKLSGARLAAREAHNRRCQPPLSRTQCVERYLKFIELPLTQRKFCQTCQQLLLPDDWGQHSEHQVLGNVSITQLRRPSQLLYPLENAATNAQYLFADRSCQFLVDLLSALGFRRVLCVGTPRLHELIKLTASGDKKSNIKSLLLDIDFRYSQFYMEDSFCHYNMFNHHFFDGKTALEVCRAFLQEDKGEGIIMVTDPPFGGLVEPLAITFKKLIAMWKEGQSQDDSHKELPIFWIFPYFFESRICQFFPSFQMLDYQVDYDNHALYKHGKTGRKQSPVRIFTNIPPNKIILPTEEGYRFCSPCQRYVSLENQHCELCNSCTSKDGRKWNHCFLCKKCVKPSWIHCSICNHCAVPDHSCEGPKHGCFICGELDHKRSTCPNIATS
binding: no binding
